Reference: doi:10.1101/2020.05.23.111989
Where two headings read alike, the source gives them in different places. These are yes or no findings as the source states them, for the method shown. For some of these results: In cells and extracts the contact can be indirect. Some results given as binding are weak or reduced against the parent protein; the word gives no strength.

Amino acid sequences for entries named in this document (tags omitted).
UniProt Q15691: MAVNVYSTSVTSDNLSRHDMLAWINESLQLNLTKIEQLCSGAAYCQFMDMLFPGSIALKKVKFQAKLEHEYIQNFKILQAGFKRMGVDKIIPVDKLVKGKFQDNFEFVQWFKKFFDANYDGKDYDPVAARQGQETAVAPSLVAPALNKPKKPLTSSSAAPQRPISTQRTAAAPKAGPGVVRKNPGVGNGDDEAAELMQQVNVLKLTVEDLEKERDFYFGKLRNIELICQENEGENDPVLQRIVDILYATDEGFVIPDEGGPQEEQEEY

What was measured:
Assay in all cases: pull-down
EB1-GST [1] = molecular target: EB1-GST (UniProt Q15691)
EB1-GST [2] = molecular target: EB1-GST (UniProt Q15691); remark: listed apart in the source
[3] = molecular target: EB1-GST phosphorylated with Cdk1-Cyclin B (UniProt Q15691)

Row | Binder | binding (EB1-GST [1]) | binding (EB1-GST [2]) | binding [3]
1 | GTSE1 (endogenous, U2OS cell extract) (protein, UniProt Q9NYZ3 1-739) MEGGGGRDEPSACRAGDVNMDDPKKEDILLLADEKFDFDLSLSSSSANEDDEVFFGPFGHKERCIAASLELNNPVPEQPPLPTSESPFAWSPLAGEKFVEVYKEAHLLALHIESSSRNQAAQAAKPEDPRSQGVERFIQESKLKINLFEKEKEMKKSPTSLKRETYYLSDSPLLGPPVGEPRLLASSPALPSSGAQARLTRAPGPPHSAHALPRESCTAHAASQAATQRKPGTKLLLPRAASVRGRSIPGAAEKPKKEIPASPSRTKIPAEKESHRDVLPDKPAPGAVNVPAAGSHLGQGKRAIPVPNKLGLKKTLLKAPGSTSNLARKSSSGPVWSGASSACTSPAVGKAKSSEFASIPANSSRPLSNISKSGRMGPAMLRPALPAGPVGASSWQAKRVDVSELAAEQLTAPPSASPTQPQTPEGGGQWLNSSCAWSESSQLNKTRSIRRRDSCLNSKTKVMPTPTNQFKIPKFSIGDSPDSSTPKLSRAQRPQSCTSVGRVTVHSTPVRRSSGPAPQSLLSAWRVSALPTPASRRCSGLPPMTPKTMPRAVGSPLCVPARRRSSEPRKNSAMRTEPTRESNRKTDSRLVDVSPDRGSPPSRVPQALNFSPEESDSTFSKSTATEVAREEAKPGGDAAPSEALLVDIKLEPLAVTPDAASQPLIDLPLIDFCDTPEAHVAVGSESRPLIDLMTNTPDMNKNVAKPSPVVGQLIDLSSPLIQLSPEADKENVDSPLLKF | binds | binds | –
2 | Full length GTSE1 (purified, unphosphorylated) (protein, UniProt Q9NYZ3 1-739) MEGGGGRDEPSACRAGDVNMDDPKKEDILLLADEKFDFDLSLSSSSANEDDEVFFGPFGHKERCIAASLELNNPVPEQPPLPTSESPFAWSPLAGEKFVEVYKEAHLLALHIESSSRNQAAQAAKPEDPRSQGVERFIQESKLKINLFEKEKEMKKSPTSLKRETYYLSDSPLLGPPVGEPRLLASSPALPSSGAQARLTRAPGPPHSAHALPRESCTAHAASQAATQRKPGTKLLLPRAASVRGRSIPGAAEKPKKEIPASPSRTKIPAEKESHRDVLPDKPAPGAVNVPAAGSHLGQGKRAIPVPNKLGLKKTLLKAPGSTSNLARKSSSGPVWSGASSACTSPAVGKAKSSEFASIPANSSRPLSNISKSGRMGPAMLRPALPAGPVGASSWQAKRVDVSELAAEQLTAPPSASPTQPQTPEGGGQWLNSSCAWSESSQLNKTRSIRRRDSCLNSKTKVMPTPTNQFKIPKFSIGDSPDSSTPKLSRAQRPQSCTSVGRVTVHSTPVRRSSGPAPQSLLSAWRVSALPTPASRRCSGLPPMTPKTMPRAVGSPLCVPARRRSSEPRKNSAMRTEPTRESNRKTDSRLVDVSPDRGSPPSRVPQALNFSPEESDSTFSKSTATEVAREEAKPGGDAAPSEALLVDIKLEPLAVTPDAASQPLIDLPLIDFCDTPEAHVAVGSESRPLIDLMTNTPDMNKNVAKPSPVVGQLIDLSSPLIQLSPEADKENVDSPLLKF | binds | – | binds
